In paper doi:10.1101/2020.05.07.083568 one finds binding data, which are given here for 2 molecules.

The target in this assay is 3HA-BioID2-TbUnc119 (Trypanosoma brucei) (UniProt Q586Q9). The assay is described as follows: proximity labelling.

These are yes or no findings as the source states them, for the method shown. In cells and extracts the contact can be indirect. Here binding means that the protein was enriched with, or labelled near, the bait; the list need not be complete.

B1: TbSMP1-1 (endogenous) (protein, UniProt Q4GYZ8 1-123)
chain: MGCGGSKTSTVEFINGQPTVQGDEIVKGFNEGNGLLFRIVKTRAGRWAYYNDTLDYDMHVKVTFSEDCRIKALGQTRLEKLESGESVATVVVKPCATELFIEGHVNGYKAKMDAIPITDGDRQ
modifications: N-terminal myristoylation site (G2)
As to B1, the binding entry is on record as “binds”.

B2: kinetoplastid membrane proteins, KMP-11 (protein, UniProt P69301 1-92)
chain: MATTYEEFAAKLDRLDAEFAKKMEEQNKRFFADKPDEATLSPEMKEHYEKFEKMIQEHTDKFNKKMREHSEHFKAKFAELLEQQKNAQFPGK
In the case of B2, the binding result is “binds”.
